In publication PMC7979543:
No constants are given. Whether binding was seen depends on the method and setting. In cells and extracts the contact can be indirect. Some results given as binding are weak or reduced against the parent protein; the word gives no strength.

Chains of the proteins cited; added tags and fusions are not shown. Lines headed by an entry give the natural chain unless they say otherwise; changes in a name come on top.
UniProt Q9NZJ0: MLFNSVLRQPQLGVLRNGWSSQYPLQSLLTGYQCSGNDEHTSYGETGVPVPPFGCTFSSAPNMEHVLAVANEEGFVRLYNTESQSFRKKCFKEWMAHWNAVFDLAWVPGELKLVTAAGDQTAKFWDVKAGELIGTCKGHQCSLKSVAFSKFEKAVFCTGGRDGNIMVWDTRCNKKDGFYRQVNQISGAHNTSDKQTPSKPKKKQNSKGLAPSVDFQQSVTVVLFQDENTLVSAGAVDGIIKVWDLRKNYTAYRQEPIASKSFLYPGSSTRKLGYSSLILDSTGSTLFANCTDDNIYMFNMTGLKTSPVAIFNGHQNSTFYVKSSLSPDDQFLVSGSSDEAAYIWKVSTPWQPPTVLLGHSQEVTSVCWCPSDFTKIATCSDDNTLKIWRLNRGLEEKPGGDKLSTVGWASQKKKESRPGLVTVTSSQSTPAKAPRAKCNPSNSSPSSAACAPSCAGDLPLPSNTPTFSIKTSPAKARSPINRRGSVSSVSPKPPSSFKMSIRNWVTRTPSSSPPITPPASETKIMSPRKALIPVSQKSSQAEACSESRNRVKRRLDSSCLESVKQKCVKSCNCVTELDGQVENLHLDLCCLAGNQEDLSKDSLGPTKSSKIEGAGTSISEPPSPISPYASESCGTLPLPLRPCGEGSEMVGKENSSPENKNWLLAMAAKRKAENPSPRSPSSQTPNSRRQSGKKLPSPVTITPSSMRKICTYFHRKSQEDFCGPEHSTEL
UniProt Q13619: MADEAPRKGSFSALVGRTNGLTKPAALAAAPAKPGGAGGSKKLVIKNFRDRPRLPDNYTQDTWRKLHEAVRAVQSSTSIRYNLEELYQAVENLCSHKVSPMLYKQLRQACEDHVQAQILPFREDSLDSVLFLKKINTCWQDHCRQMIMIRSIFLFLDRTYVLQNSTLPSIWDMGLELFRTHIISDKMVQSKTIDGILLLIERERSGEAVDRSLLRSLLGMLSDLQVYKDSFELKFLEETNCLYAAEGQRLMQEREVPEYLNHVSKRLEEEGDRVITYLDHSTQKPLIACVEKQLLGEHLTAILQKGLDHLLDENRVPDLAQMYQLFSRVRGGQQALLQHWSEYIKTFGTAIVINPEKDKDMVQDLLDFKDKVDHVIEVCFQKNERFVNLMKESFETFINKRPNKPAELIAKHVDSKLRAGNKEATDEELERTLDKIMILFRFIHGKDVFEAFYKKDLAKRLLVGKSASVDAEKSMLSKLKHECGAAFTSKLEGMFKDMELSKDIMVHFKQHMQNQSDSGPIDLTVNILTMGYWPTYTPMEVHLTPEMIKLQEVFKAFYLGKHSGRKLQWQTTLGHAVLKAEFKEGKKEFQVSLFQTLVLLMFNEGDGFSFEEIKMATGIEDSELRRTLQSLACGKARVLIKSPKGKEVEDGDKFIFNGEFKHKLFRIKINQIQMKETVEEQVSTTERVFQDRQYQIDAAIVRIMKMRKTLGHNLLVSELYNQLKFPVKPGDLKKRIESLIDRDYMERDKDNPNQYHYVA
UniProt P78527: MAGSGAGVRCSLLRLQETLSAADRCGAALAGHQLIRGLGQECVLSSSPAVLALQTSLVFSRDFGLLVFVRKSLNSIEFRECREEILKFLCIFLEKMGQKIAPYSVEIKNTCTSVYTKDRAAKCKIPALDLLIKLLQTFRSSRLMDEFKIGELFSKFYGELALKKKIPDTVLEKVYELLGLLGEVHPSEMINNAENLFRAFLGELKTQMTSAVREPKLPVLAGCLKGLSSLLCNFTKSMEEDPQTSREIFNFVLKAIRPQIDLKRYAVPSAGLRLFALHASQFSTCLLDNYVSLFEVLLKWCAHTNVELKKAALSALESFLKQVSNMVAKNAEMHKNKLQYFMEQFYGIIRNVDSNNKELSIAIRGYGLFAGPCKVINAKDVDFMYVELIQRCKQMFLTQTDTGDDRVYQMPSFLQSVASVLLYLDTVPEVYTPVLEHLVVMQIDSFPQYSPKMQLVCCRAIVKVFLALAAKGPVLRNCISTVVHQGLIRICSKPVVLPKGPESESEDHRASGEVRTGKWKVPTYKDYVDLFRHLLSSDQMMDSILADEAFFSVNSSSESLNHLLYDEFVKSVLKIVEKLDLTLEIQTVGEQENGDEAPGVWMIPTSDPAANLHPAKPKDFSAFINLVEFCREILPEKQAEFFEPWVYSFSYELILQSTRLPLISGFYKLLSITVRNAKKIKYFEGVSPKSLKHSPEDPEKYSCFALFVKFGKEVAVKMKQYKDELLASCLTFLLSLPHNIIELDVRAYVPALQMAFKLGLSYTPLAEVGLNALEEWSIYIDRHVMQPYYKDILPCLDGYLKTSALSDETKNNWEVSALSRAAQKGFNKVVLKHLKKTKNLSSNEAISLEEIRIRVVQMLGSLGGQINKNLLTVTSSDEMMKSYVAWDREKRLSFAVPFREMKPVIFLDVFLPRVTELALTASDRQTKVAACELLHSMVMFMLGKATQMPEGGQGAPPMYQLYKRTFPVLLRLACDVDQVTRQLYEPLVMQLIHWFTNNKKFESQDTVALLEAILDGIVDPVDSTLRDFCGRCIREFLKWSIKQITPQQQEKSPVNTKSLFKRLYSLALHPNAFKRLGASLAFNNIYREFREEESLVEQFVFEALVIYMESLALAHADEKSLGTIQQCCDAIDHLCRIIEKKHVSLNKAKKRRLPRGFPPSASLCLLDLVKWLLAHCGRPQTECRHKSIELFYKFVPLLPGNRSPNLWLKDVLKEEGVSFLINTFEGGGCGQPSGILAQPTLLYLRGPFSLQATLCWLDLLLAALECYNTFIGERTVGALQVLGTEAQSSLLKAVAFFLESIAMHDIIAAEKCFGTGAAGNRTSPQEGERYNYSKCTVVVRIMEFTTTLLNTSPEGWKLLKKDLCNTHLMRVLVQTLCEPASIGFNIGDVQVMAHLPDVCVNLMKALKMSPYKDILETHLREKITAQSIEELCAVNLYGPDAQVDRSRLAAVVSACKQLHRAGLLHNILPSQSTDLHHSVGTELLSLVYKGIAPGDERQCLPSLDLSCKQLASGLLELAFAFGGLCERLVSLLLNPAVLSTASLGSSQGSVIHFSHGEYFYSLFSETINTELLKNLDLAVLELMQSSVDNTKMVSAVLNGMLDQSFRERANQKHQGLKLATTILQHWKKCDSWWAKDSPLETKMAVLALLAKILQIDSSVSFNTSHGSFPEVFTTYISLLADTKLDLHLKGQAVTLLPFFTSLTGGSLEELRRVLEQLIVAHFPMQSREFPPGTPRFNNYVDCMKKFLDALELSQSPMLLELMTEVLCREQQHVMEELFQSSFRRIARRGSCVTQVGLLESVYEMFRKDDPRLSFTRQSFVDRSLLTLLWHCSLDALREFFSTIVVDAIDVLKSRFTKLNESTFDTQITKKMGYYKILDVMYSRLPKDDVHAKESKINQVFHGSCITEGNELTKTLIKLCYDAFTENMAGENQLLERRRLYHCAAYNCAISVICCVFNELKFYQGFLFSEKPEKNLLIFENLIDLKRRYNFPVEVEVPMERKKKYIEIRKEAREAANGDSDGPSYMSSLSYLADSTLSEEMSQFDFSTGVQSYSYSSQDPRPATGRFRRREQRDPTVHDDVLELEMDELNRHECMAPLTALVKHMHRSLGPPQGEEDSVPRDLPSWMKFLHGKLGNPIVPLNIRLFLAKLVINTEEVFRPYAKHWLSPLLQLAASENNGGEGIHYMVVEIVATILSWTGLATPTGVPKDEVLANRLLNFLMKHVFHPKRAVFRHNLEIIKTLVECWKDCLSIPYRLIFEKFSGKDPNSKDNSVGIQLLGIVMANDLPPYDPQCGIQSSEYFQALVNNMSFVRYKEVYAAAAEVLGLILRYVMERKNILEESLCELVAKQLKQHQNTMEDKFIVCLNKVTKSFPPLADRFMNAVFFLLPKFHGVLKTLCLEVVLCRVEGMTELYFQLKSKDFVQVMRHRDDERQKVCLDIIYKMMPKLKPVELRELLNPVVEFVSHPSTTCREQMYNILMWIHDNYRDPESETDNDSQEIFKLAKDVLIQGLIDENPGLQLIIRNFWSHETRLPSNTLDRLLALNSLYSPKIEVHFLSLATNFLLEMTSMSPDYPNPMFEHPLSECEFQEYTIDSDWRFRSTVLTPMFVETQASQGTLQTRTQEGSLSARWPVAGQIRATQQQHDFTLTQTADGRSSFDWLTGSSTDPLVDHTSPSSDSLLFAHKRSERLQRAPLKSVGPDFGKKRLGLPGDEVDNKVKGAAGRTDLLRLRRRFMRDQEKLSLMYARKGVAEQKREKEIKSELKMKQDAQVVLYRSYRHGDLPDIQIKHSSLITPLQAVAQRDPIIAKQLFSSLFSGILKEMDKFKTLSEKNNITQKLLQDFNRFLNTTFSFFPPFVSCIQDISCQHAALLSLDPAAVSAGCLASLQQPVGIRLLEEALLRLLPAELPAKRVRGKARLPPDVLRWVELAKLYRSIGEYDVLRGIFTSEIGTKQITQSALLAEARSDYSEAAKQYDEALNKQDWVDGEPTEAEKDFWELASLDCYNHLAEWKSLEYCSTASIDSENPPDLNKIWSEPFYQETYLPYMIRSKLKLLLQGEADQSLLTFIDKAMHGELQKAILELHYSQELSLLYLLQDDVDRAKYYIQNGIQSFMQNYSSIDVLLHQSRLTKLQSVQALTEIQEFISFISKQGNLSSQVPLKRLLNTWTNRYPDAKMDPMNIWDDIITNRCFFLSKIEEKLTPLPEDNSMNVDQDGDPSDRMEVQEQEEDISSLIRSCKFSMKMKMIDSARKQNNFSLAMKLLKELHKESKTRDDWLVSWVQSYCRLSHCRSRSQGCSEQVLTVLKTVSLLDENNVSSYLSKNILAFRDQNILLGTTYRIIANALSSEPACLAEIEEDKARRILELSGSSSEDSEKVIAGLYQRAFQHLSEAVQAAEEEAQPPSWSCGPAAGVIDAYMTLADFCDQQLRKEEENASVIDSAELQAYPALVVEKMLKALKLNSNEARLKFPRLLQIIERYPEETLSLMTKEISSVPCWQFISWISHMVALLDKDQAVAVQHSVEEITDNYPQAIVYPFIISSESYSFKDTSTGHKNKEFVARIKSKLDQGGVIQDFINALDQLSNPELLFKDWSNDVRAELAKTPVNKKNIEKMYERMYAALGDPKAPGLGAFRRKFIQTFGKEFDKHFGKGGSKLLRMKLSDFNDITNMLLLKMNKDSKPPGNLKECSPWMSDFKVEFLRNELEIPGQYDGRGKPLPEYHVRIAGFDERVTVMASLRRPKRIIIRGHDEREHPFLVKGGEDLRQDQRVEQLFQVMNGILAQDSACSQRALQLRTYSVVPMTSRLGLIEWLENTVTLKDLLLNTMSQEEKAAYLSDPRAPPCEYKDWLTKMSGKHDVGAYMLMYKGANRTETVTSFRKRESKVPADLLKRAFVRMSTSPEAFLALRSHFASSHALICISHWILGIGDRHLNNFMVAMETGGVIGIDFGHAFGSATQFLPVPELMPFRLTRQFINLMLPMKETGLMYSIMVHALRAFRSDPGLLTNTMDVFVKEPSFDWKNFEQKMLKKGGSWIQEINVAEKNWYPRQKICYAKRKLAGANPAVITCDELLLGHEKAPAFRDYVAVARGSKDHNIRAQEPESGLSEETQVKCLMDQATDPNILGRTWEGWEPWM

Experiments:
Flag-DTL [1] = molecular target: Flag-DTL (UniProt Q9NZJ0); assay: co-IP; HEK293T transfected with Myc-CUL4A and Flag-DTL (Fig. 3A) or with DTL R171H / DTL R246H as indicated (Fig. 3H)
DTL R171H = DTL R171H (UniProt Q9NZJ0); assay: as above
Flag-DTL [2] = molecular target: Flag-DTL (UniProt Q9NZJ0); assay: co-IP; HEK293T transfected with Flag-DTL, after IR (Fig. 3D); also after silencing of CUL4A expression (Fig. 3F, binding not affected)
Flag-DTL [3] = molecular target: Flag-DTL (UniProt Q9NZJ0); assay: co-IP; as the co-IPs of transfected HEK293T cells, but a nuclease (Benzonase) added to the extracted protein lysate to digest DNA; in the presence or absence of DNA damage
DTL R246H = DTL R246H (UniProt Q9NZJ0); assay: co-IP; HEK293T transfected with Myc-CUL4A and Flag-DTL (Fig. 3A) or with DTL R171H / DTL R246H as indicated (Fig. 3H)

Measured: binding

Myc-CUL4A (from UniProt Q13619 1-759)
binds: Flag-DTL [1] | DTL R171H

DNA-PKcs (from UniProt P78527 1-4128)
binds: all assays above
